# Results published in publication doi:10.1101/2025.08.18.670902.
# Amino acid sequences for entries named in this document (tags omitted). Residues count along the entry.
# UniProt Q14145, residues 321-611: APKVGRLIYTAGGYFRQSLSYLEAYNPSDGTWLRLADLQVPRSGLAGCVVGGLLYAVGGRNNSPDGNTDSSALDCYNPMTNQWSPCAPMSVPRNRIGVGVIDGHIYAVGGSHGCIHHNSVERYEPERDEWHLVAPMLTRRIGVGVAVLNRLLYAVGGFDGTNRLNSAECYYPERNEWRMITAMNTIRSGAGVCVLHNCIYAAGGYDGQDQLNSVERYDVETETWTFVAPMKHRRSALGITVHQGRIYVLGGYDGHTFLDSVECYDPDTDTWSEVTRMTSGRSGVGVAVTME
# Results are given in words; binding and its absence hold for the method and conditions named. Some binding calls cover weakened binding; strength is not graded here.
# Molecular target: Kelch fragment (Ala321-Glu611 of human KEAP1 protein) (human) (UniProt Q14145)
# Experiment: SPR
binder,measurement,value
MDLIDILWRQDIDLGVSREVFDFS [DLG^WT peptide (NRF2 residues 17-40)],binding,binds
